# Laboratory results: PubChem BioAssay AID2685 (National Center for Advancing Translational Sciences (NCATS), 2010)
# Some of the results follow. Further columns of the screen follow, without active or inactive calls. The list favours compounds with an active or inconclusive main result. The note in brackets gives the kind of curve behind each potency; many fits are weak.
# Test: qHTS Assay for Lipid Storage Modulators in Drosophila S3 Cells;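 as to cell number change: cells counted by Cell Tracker Red CMTPX staining in the red channel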
# Conditions: BODIPY lipid droplet fluorescence, 18-24 h; for cell number change: measured here: cell count max response, cells fed with added oleic acid
# How it was run: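 Drosophila S3 cells got compounds at several concentrations plus oleic acid (400 uM solution). Laser-scanning cytometry with 488 nm excitation read lipid droplets at 500-530 nm and cells at 575-640 nm. Percent activity was relative to 20 uM Triacsin C.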
# [1] = measured here: lipid fluorescence (Fed channel) AC50, cells fed with added oleic acid
# [2] = measured here: cell number channel AC50, cells fed with added oleic acid
SMILES,cell number change [%],AC50 [1],AC50 [2]
COc1ccc(/C=N/Nc2ccc(C(F)(F)F)cc2[N+](=O)[O-])cc1,-28.4,"29.1 µM [falling, single point]",–
Cc1cc(C)cc(NC(=S)N2CCN(S(C)(=O)=O)CC2)c1,-32.2,"7.31 µM [rising, partial curve]",–
Cc1ccc(Cl)cc1NC(=O)CSc1sc2c(O)cc(=O)[nH]c2c1C#N,15.7,–,"7.31 µM [rising, partial curve, poor fit]"
COc1ccc(Cn2c(O)c(C=Nc3ccc(C)cc3)c3ccccc3c2=O)cc1,-26,"6.51 µM [falling, single point]",–
CN(CC(=O)NC1CCCCCC1)S(=O)(=O)c1ccc2c(c1)n(C)c(=O)c(=O)n2C,-9.96,"1.64 µM [falling, full curve, poor fit]",–
CC(NC(=O)C(C)(C)C)c1nc2ccccc2n1C (stereo not given),-156,"29.1 µM [falling, partial curve]","23.1 µM [falling, single point]"
O=C(COc1ccc(Br)cc1)Nc1ccc(N2CCOCC2)cc1N1CCOCC1,5.57,"3.26 µM [falling, single point]",–
COC(=O)CSc1nc(N)c(NC(=O)c2ccc(OC)c(OC)c2)c(=O)[nH]1,-34.3,"2.91 µM [falling, full curve]","2.91 µM [falling, full curve, poor fit]"
O=C(O)c1ccccc1NS(=O)(=O)c1ccccc1C(F)(F)F,-13.8,–,–
C=CCC1(CC=C)CCCN1Cc1nc(COc2ccccc2)no1,2.04,"0.13 µM [falling, partial curve, poor fit]",–
COC(=O)c1ccccc1NC(=O)NCc1ccc2c(c1)OCO2,117,"16.4 µM [rising, partial curve]","16.4 µM [rising, partial curve, poor fit]"
CCN(CC(=O)Nc1cccc(OC)c1)CC(=O)Nc1ccccc1C,-1.42,–,–
CC1CCCCC1NC(=O)c1cccc(N2C(=O)C3C4C=CC(C4)C3C2=O)c1 (stereo not given),–,"2.91 µM [rising, partial curve]",–
O=C(Nc1ccc2c(c1)CCC2)c1cccc(F)c1,55.4,"6.51 µM [falling, single point]","2.06 µM [falling, partial curve]"
O=C1C2C3C=CC(C4CC34)C2C(=O)N1/N=C/c1ccc(-c2ccc([N+](=O)[O-])cc2)o1 (stereo not given),0.319,"3.26 µM [falling, single point]","5.17 µM [falling, single point]"
COc1ccccc1-c1nc(N)n[nH]1,17.1,"0.0461 µM [rising, full curve, poor fit]",–
COc1ccc(N(CC(=O)NN=C2CCCC2)S(=O)(=O)c2ccccc2)cc1,22.4,"2.91 µM [falling, single point]",–
S=c1nc(Cc2ccc(Cl)cc2)[nH]c2ccccc12,–,"1.64 µM [falling, partial curve]",–
O=C(CN1CCOCC1)N/N=C/C(Br)=C\c1ccccc1,-7.69,–,–
COc1ccc(C(=O)N(C)Cc2ccc(C)o2)cc1OC1CCN(C(C)C)CC1,24.3,–,–

SMILES,cell number change [%],AC50 [1],AC50 [2]
O=C(C1CCN(S(=O)(=O)c2cccnc2)CC1)N1CCCCC1,3.44,"6.51 µM [falling, partial curve, poor fit]",–
COc1ccc(Cl)cc1N(CC(=O)N1CCCC1)S(C)(=O)=O,43.9,–,"1.46 µM [rising, full curve]"
Cc1c(C(N)=O)sc2ncn(CC(=O)OC(C)C)c(=O)c12,-10.3,–,"0.00461 µM [falling, full curve, poor fit]"
Cc1ccc(C(=O)CSc2n[nH]c(C)n2)cc1,3.81,–,–
COC(=O)Cc1sc(-c2ccccn2)nc1-c1ccccc1,31,–,"10.3 µM [rising, single point]"
CC(C)Oc1ccc(C(=O)NC2(C(F)(F)F)N=C3SCCN3C2=O)cc1 (stereo not given),-30.6,"3.26 µM [falling, single point]","3.66 µM [falling, full curve]"
COc1ccc(NC(=O)CN(C)C(=O)CC2CCCC2)cc1,-54.2,–,"29.1 µM [falling, single point]"
O=C(CCN1C(=O)c2ccccc2C1=O)NCCCn1ccnc1,-0.57,–,–
Cc1ccnc(NS(=O)(=O)c2ccc(NS(=O)(=O)c3ccc(Br)cc3)cc2)n1,14.9,"2.91 µM [rising, full curve]",–
O=C(Nc1ccccc1)/C(=C/c1cccnc1)NC(=O)c1ccccc1,88.9,–,"16.4 µM [rising, single point]"
CSc1ccccc1NC(=O)CSc1nnc(CNC(=O)c2ccccc2F)n1C,1.9,–,–
NS(=O)(=O)c1ccc(NC(=O)CSc2nnc(C3CC3)n2C2CC2)cc1,-9.67,"29.1 µM [rising, single point]",–
Cc1cc(C)c(S(=O)(=O)Nc2c(C)[nH]c(=O)[nH]c2=O)c(C)c1,16.6,"0.411 µM [falling, single point]",–
CC(=O)c1ccc(OCCNS(=O)(=O)c2ccc(-n3cnnn3)c(C)c2)cc1,-11.3,"29.1 µM [falling, single point]",–
Cc1c(C(=O)NCc2ccco2)oc2c(F)cccc12,6.19,"23.1 µM [rising, single point]",–
CCC(CC)C(=O)Nc1cccc(C(=O)Nc2ccc(S(=O)(=O)Nc3ccc(C)cc3)cc2)c1,-1.12,"4.11 µM [rising, single point]",–
COc1ccc(N(CC(=O)NCC2CCCO2)C(=O)CCC(=O)Nc2nccs2)c(OC)c1 (stereo not given),20.5,–,–
COc1cc2c(cc1OC)C(c1ccccc1C(F)(F)F)CC(=O)N2 (stereo not given),14.4,"13 µM [falling, partial curve]",–
COc1ccccc1NC(=O)C(C)OC(=O)c1ccc(-n2cnnn2)cc1 (stereo not given),36.2,–,"18.4 µM [rising, partial curve, poor fit]"
CC1CCN(S(=O)(=O)c2ccc(F)c(C(=O)O)c2)CC1,7.64,–,–

# Single records, from the list above. Order of values: cell number change [%]	AC50 [1]	AC50 [2]
# COc1ccc(Cl)cc1N(CC(=O)N1CCCC1)S(C)(=O)=O as listed: 43.9	–	1.46 µM [rising, full curve]
# COC(=O)CSc1nc(N)c(NC(=O)c2ccc(OC)c(OC)c2)c(=O)[nH]1 as listed: -34.3	2.91 µM [falling, full curve]	2.91 µM [falling, full curve, poor fit]
